From paper PMC4332418
No constants are given. Whether binding was seen depends on the method and setting. Some binding calls cover weakened binding; strength is not graded here.

Biological target: Neuroserpin (human, recombinant, wild type) (human) (UniProt Q99574)
Experiment: SEC; 20 uM native NS incubated at 55 °C for 2 h; polymers then separated from latent NS by size exclusion chromatography; both purified

B1: Neuroserpin (human, recombinant, wild type) (protein, UniProt Q99574 17-410)
chain: TGATFPEEAIADLSVNMYNRLRATGEDENILFSPLSIALAMGMMELGAQGSTQKEIRHSMGYDSLKNGEEFSFLKEFSNMVTAKESQYVMKIANSLFVQNGFHVNEEFLQMMKKYFNAAVNHVDFSQNVAVANYINKWVENNTNNLVKDLVSPRDFDAATYLALINAVYFKGNWKSQFRPENTRTFSFTKDDESEVQIPMMYQQGEFYYGEFSDGSNEAGGIYQVLEIPYEGDEISMMLVLSRQEVPLATLEPLVKAQLVEEWANSVKKQKVEVYLPRFTVEQEIDLKDVLKALGITEIFIKDANLTGLSDNKEIFLSKAIHKSFLEVNEEGSEAAAVSGMIAISRMAVLYPQVIVDHPFFFLIRNRRTGTILFMGRVMHPETMNTSGHDFEEL
  binding: binds
